{"source": "PubChem BioAssay AID1259254 (NCATS, 2017)", "screen": "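Genome-wide screen for genes that prevent DNA re-replication in cancer cells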 (primary screen)", "system": "human HCT116 colorectal cancer cells", "reagents": "single siRNA against human genes", "time to read-out": "3 days", "read-out": "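Imaged Hoechst DNA stain sorts each cell into a cycle phase by DNA amount; per plate, G2 fraction set to 0% for non-targeting and 100% for GMNN siRNA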", "scale": "G2 robust z-score and G2 cells, % of GMNN control: higher = more G2 cells, more excess DNA replication", "rule for the call": "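Active siRNAs have a G2 robust z of 5 or more median absolute deviations over the median, which in these data means about 38% or higher of GMNN control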", "note": "The deposit covers about 59,000 reagents; shown is a random part of them. Of all reagents, about 1,550 (2.6%) were called active. 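G2 share is only a proxy for re-replication; each gene was hit by three separate siRNAs, and active genes were retested.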 Further read-outs or replicates are left out here. Not given: the amount of reagent."}
{"gene knocked down":"RGR","PubChem SID":"SID160715859","G2 robust z-score":-0.714,"G2 cells, % of GMNN control":-2.05,"activity call":"inactive"}
{"gene knocked down":"RGR","PubChem SID":"SID160715860","G2 robust z-score":2.05,"G2 cells, % of GMNN control":17.4,"activity call":"inactive"}
{"gene knocked down":"RGR","PubChem SID":"SID160715861","G2 robust z-score":0.462,"G2 cells, % of GMNN control":6.22,"activity call":"inactive"}
{"gene knocked down":"ZNF524","PubChem SID":"SID160724862","G2 robust z-score":1.09,"G2 cells, % of GMNN control":10.7,"activity call":"inactive"}
{"gene knocked down":"ZNF524","PubChem SID":"SID160724863","G2 robust z-score":-0.815,"G2 cells, % of GMNN control":-2.77,"activity call":"inactive"}
{"gene knocked down":"ZNF524","PubChem SID":"SID160758572","G2 robust z-score":0.0168,"G2 cells, % of GMNN control":3.09,"activity call":"inactive"}
{"gene knocked down":"CALD1","PubChem SID":"SID160735808","G2 robust z-score":-0.243,"G2 cells, % of GMNN control":1.26,"activity call":"inactive"}
{"gene knocked down":"CALD1","PubChem SID":"SID160735819","G2 robust z-score":0.0453,"G2 cells, % of GMNN control":3.29,"activity call":"inactive"}
{"gene knocked down":"CALD1","PubChem SID":"SID160735829","G2 robust z-score":0.278,"G2 cells, % of GMNN control":4.92,"activity call":"inactive"}
{"gene knocked down":"FLII","PubChem SID":"SID160766403","G2 robust z-score":1.45,"G2 cells, % of GMNN control":13.2,"activity call":"inactive"}
{"gene knocked down":"FLII","PubChem SID":"SID160766409","G2 robust z-score":-0.702,"G2 cells, % of GMNN control":-1.97,"activity call":"inactive"}
{"gene knocked down":"FLII","PubChem SID":"SID160766419","G2 robust z-score":2.91,"G2 cells, % of GMNN control":23.5,"activity call":"inactive"}
{"gene knocked down":"ENGASE","PubChem SID":"SID160747948","G2 robust z-score":-0.136,"G2 cells, % of GMNN control":2.01,"activity call":"inactive"}
{"gene knocked down":"ENGASE","PubChem SID":"SID160747949","G2 robust z-score":-0.743,"G2 cells, % of GMNN control":-2.26,"activity call":"inactive"}
{"gene knocked down":"ENGASE","PubChem SID":"SID160747951","G2 robust z-score":-0.947,"G2 cells, % of GMNN control":-3.69,"activity call":"inactive"}
{"gene knocked down":"HOXC13","PubChem SID":"SID160775243","G2 robust z-score":2.96,"G2 cells, % of GMNN control":23.8,"activity call":"inactive"}
{"gene knocked down":"HOXC13","PubChem SID":"SID160775245","G2 robust z-score":-0.411,"G2 cells, % of GMNN control":0.0761,"activity call":"inactive"}
{"gene knocked down":"HOXC13","PubChem SID":"SID160775246","G2 robust z-score":0.693,"G2 cells, % of GMNN control":7.84,"activity call":"inactive"}
{"gene knocked down":"MADD","PubChem SID":"SID160720354","G2 robust z-score":-0.22,"G2 cells, % of GMNN control":1.42,"activity call":"inactive"}
{"gene knocked down":"MADD","PubChem SID":"SID160720355","G2 robust z-score":0.903,"G2 cells, % of GMNN control":9.32,"activity call":"inactive"}
{"gene knocked down":"MADD","PubChem SID":"SID160732067","G2 robust z-score":0.2,"G2 cells, % of GMNN control":4.38,"activity call":"inactive"}
{"gene knocked down":"SLC9B2","PubChem SID":"SID160757234","G2 robust z-score":0.129,"G2 cells, % of GMNN control":3.87,"activity call":"inactive"}
{"gene knocked down":"SLC9B2","PubChem SID":"SID160757235","G2 robust z-score":-0.876,"G2 cells, % of GMNN control":-3.19,"activity call":"inactive"}
{"gene knocked down":"SLC9B2","PubChem SID":"SID160757236","G2 robust z-score":1.78,"G2 cells, % of GMNN control":15.5,"activity call":"inactive"}

An excerpt from above, limited to “G2 robust z-score”.
FLII [SID160766403]: 1.45
FLII [SID160766409]: -0.702
